Measurements reported in PubChem BioAssay AID1159578 (Peter MacCallum Cancer Centre, 2015).
The deposit covers about 18,000 reagents; shown is a part drawn at random. About 1,030 of all reagents (5.7%) were called active. 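Inactive calls also include pools with fewer than 3300 nuclei, whose migration was not assessed.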 Raw values are not corrected between plates. Unmarked entries are inactive. Not all columns of the deposit are shown.

- Aim: 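Knock-downs that alter how fast lymphatic endothelial cells migrate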 (primary screen)
- System: human lymphatic endothelial cells
- Reagent: siRNA pool against human genes, 40 nM
- Timing: 48 h after transfection
- Read-out: 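High-content imaging of dye-stained cells in a scratch assay measures filled wound area and nuclei per well; duplicate means given as ratio to mock and robust z-score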
- Scale: migration robust z-score: higher = faster migration into the scratch; nuclei per well: higher = more cells in the well
- Rule for the call: 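Pools averaging fewer than 3300 nuclei are never called; remaining pools count as changed when migration robust z lies outside -2 to 2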
- Calls: active = migration changed; inactive = no migration change, or too few cells

migration robust z-score,"nuclei per well, duplicate mean",gene symbol
0.26,5474,SNAP25 (GeneID 6616)
0.54,5210,SRD5A1 (GeneID 6715)
1.08,5102,PNN (GeneID 5411)
0.64,4290,AFAP1 (GeneID 60312)
0.82,7217,NAPEPLD (GeneID 222236)
1.22,5074,FSTL3 (GeneID 10272)
-0.08,5706,C3orf52 (GeneID 79669)
0.42,7903,NIM1K (GeneID 167359)
0.76,5032,OR6B1 (GeneID 135946)
1.46,6200,KRTAP12-3 (GeneID 386683)
0.34,6150,LIG3 (GeneID 3980)
-1.31,4297,MAGIX (GeneID 79917)
0.18,5589,OGFOD2 (GeneID 79676)
0.79,4394,PLAC4 (GeneID 191585)
0.08,6346,ACBD5 (GeneID 91452)
0.66,6575,POLDIP2 (GeneID 26073)
-1.66,5408,TMX2 (GeneID 51075)
-1.06,6298,PSMG3 (GeneID 84262)
0.17,6441,MRFAP1 (GeneID 93621)
-0.24,5388,MNMIP1 (GeneID 79729)
0.87,6340,SERAC1 (GeneID 84947)
-0.04,5843,GLYR1 (GeneID 84656)
-2.66 (active),5431,EFHC2 (GeneID 80258)

Entries listed above called active (1):
migration robust z-score,"nuclei per well, duplicate mean",gene symbol
-2.66 (active),5431,EFHC2 (GeneID 80258)
